Consider 26 compounds from the supplement of paper PMC10735217.

The assay relates to HEK293A TEAD-LUC reporter. Description: TEAD-luciferase reporter activity (YAP activation), robust Z score vs plate; higher = stronger YAP/TEAD activation. The conditions noted are these: 24 h.

Where a name gives a salt, the structure may show the parent alone. The list shows a part of the results. Repeats in this data set agree poorly, so a single value says little.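 The human kidney-derived cells carry a stably integrated construct of eight TEAD-binding elements driving luciferase, read by luminescence in a drug-repurposing library screen. A compound counts as a hit when its signal is more than five robust Z scores above the plate mean.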

As to `CC(C)[C@@H]1NC(=O)[C@H](CCCCN)NC(=O)[C@@H](Cc2c[nH]c3ccccc23)NC(=O)[C@H](Cc2ccc(O)cc2)NC(=O)[C@@H](NC(=O)[C@H](N)Cc2ccccc2)CSSC[C@@H](C(=O)N[C@@H](Cc2c[nH]c3ccccc23)C(N)=O)NC1=O` [Vapreotide acetate], the TEAD-luciferase reporter activity reads like this: (compound concentration: 200 nM) inactive: -1.16; (compound concentration: 2 uM) inactive: -1.1; (compound concentration: 10 uM) inactive: -1.1.
Turning to `c1ccc2c(c1)CSSC2`, the TEAD-luciferase reporter activity reads like this: (compound concentration: 200 nM) inactive: -0.75; (compound concentration: 2 uM) inactive: -0.35; (compound concentration: 10 uM) inactive: 1.21.
The matching figures for `COc1ccc(-c2cc(=O)c3c(O)cc(OC4OC(COC5OC(C)C(O)C(O)C5O)C(O)C(O)C4O)cc3o2)cc1O` (stereo not given) [diosmin]: inactive: -1.15, inactive: 0.214 and inactive: -2.01.
For the compound `Cn1cc[nH]c1=S` [Methimazole], the TEAD-luciferase reporter activity was inactive: -0.431 (compound concentration: 200 nM), inactive: -1.31 (compound concentration: 2 uM) and inactive: 0.719 (compound concentration: 10 uM).
The like results for `CC[C@H](C)[C@H](N)C(=O)N[C@H]1CSSC[C@@H](C(=O)N[C@H](C(N)=O)[C@@H](C)O)NC(=O)[C@H](CCCNC(=N)N)NC(=O)[C@H](Cc2c[nH]cn2)NC(=O)[C@H](Cc2c[nH]cn2)NC(=O)CNC(=O)[C@H](Cc2c[nH]c3ccccc23)NC(=O)[C@H](CC(=O)O)NC(=O)[C@H](CCC(N)=O)NC(=O)[C@H](C(C)C)NC(=O)[C@H](C(C)C)NC1=O` were, in that order, inactive: -0.536, inactive: -0.539 and inactive: -1.29.
The matching figures for `CN(C)c1nc(Cc2ccc(NC(=O)c3ccc(C(F)(F)F)cc3)cc2)nc(N(C)C)c1CC(=O)O`: inactive: -0.872, inactive: -1.2 and inactive: -0.44.
The matching figures for `CC(=O)CC/C=C(\C)CC/C=C(\C)CC/C=C(\C)CCC=C(C)C` [tepre]: inactive: -1.59, inactive: 2.31 and inactive: 1.89.
Take `CO/N=C(\C(=O)N[C@@H]1C(=O)N2C(C(=O)[O-])=C(C[n+]3cccc4c3CCC4)CS[C@H]12)c1csc(N)n1` [Cefpirome sulfate]: the TEAD-luciferase reporter activity reads like this: (compound concentration: 200 nM) inactive: 0.492; (compound concentration: 10 uM) inactive: 1.24.
For the compound `CO/N=C(\C(=O)N[C@@H]1C(=O)N2C(C(=O)[O-])=C(C[n+]3cccc4c3CCC4)CS[C@H]12)c1csc(N)n1` [cefpirome], the TEAD-luciferase reporter activity (compound concentration: 2 uM) is inactive: -1.01.
In the case of `Cc1nc2ccc(CN(C)c3ccc(C(=O)N[C@@H](CCC(=O)O)C(=O)O)s3)cc2c(=O)[nH]1` [Raltitrexed], for the setting “compound concentration: 2 uM”, the TEAD-luciferase reporter activity was inactive: 0.381.
With `Cc1nc2ccc(CN(C)c3ccc(C(=O)N[C@@H](CCC(=O)O)C(=O)O)s3)cc2c(=O)[nH]1` [Raltitrexed (Tomudex)], the TEAD-luciferase reporter activity reads like this: (compound concentration: 200 nM) inactive: -1.37; (compound concentration: 10 uM) inactive: -0.355.
Turning to `Cc1cc(C(=O)N2CCCCc3ccccc32)ccc1CNC(=O)NCC(=O)N(C)C`, the TEAD-luciferase reporter activity runs as follows: (compound concentration: 200 nM) inactive: -0.426; (compound concentration: 2 uM) inactive: -0.278; (compound concentration: 10 uM) inactive: -1.08.
The like results for `O=C(O)c1ccc2c(c1)CCC(Cn1ccnc1)C2` (stereo not given) [Nafagrel hydrochloride] were, in that order, inactive: -0.949, inactive: -0.323 and inactive: -1.56.
Turning to `O=C(c1c[nH]c2ncccc12)N1CCN(Cc2ccccc2)CC1`, the TEAD-luciferase reporter activity is inactive: -0.805 (compound concentration: 200 nM) and inactive: 1.71 (compound concentration: 10 uM).
Consider `N#Cc1ccc(S(=O)(=O)Nc2cccc(C(c3c(O)c4c(oc3=O)CCCCCC4)C3CC3)c2)cc1` (stereo not given), for which the TEAD-luciferase reporter activity by setting is: (compound concentration: 200 nM) inactive: 0.306; (compound concentration: 2 uM) inactive: 0.548; (compound concentration: 10 uM) active: 9.35.
For the compound `O=C1Nc2ccccc2C1(c1ccc(O)cc1)c1ccc(O)cc1` [Oxyphenisatine], the TEAD-luciferase reporter activity by setting is: (compound concentration: 200 nM) inactive: 2.07; (compound concentration: 2 uM) inactive: -2.47; (compound concentration: 10 uM) inactive: 2.22.
In the case of `Cn1ccc2cc(-c3nc4ccc(F)nc4o3)cnc21`, the TEAD-luciferase reporter activity (compound concentration: 200 nM) was inactive: 1.9, the TEAD-luciferase reporter activity (compound concentration: 2 uM) was inactive: -0.135 and the TEAD-luciferase reporter activity (compound concentration: 10 uM) is inactive: 3.82.
On to `COc1cccc(C2CC2CNC(C)=O)c1` (stereo not given), for which the TEAD-luciferase reporter activity is, setting by setting: (compound concentration: 200 nM) inactive: -0.978; (compound concentration: 2 uM) inactive: 3.81; (compound concentration: 10 uM) inactive: 4.42.
The like results for `Cc1cc(-n2ncc(=O)[nH]c2=O)cc(C)c1Oc1ccc(O)c(Cc2ccc(F)cc2)c1` were, in that order, inactive: -0.475, inactive: -0.724 and inactive: 0.286.
The like results for `CCCCOc1cc(N)c(Cl)cc1C(=O)NC1CCN(CC2OCCO2)CC1` [dobupride] were, in that order, inactive: 4.88, inactive: -1.03 and inactive: -0.42.
The matching figures for `C[C@H](O)C(=O)Nc1c(I)c(C(=O)NC(CO)CO)c(I)c(C(=O)NC(CO)CO)c1I` [iopamidol]: inactive: 0.325, inactive: -0.0405 and inactive: 3.54.
On to `CC(=O)NCCCC(=O)N1CCN(c2cccc(C=O)c2)C(=O)C1`, for which the TEAD-luciferase reporter activity was inactive: -1.99 (compound concentration: 200 nM) and inactive: 0.592 (compound concentration: 10 uM).
As to `Cc1cc2c(cc1CC(=O)c1sccc1S(=O)(=O)Nc1onc(C)c1Cl)OCO2` [Sitaxentan sodium], the TEAD-luciferase reporter activity is inactive: -3.38 (compound concentration: 200 nM), inactive: -0.0238 (compound concentration: 2 uM) and inactive: 4.64 (compound concentration: 10 uM).
Consider `CCCCC[C@H](O)/C=C/C1[C@H]2C/C(=C\CCCC(=O)O)O[C@H]2C[C@@H]1O` (stereo not given in full) [epoprostenol], for which the TEAD-luciferase reporter activity reads like this: (compound concentration: 200 nM) inactive: -0.6; (compound concentration: 2 uM) inactive: -0.158; (compound concentration: 10 uM) active: 7.68.
The like results for `NC(=O)NCCN1CCN(c2cccc(C(F)(F)F)c2)CC1` [fluprazine] were, in that order, inactive: 1.24, inactive: -1.03 and inactive: 1.09.
The matching figures for `C=CC(=O)N1CC[C@@H](Oc2nc(Nc3ccc(N4CCC(N5CCN(C)CC5)CC4)cc3)c(C(N)=O)nc2CC)C1`: inactive: 2.65, inactive: -1.05 and inactive: 1.22.
